The values that follow are results of earlier work, collected in publication PMC5093203 (Pharmaceutical Research, 2016).

The conditions of the data set: rat, in vivo, iv; cited from earlier work.

In the case of insulin peglispro [BIL], the “% of dose excreted unchanged in urine” value was 11%.
